Chains of the proteins cited; added tags and fusions are not shown. Lines headed by an entry give the natural chain unless they say otherwise; changes in a name come on top.
UniProt P18054: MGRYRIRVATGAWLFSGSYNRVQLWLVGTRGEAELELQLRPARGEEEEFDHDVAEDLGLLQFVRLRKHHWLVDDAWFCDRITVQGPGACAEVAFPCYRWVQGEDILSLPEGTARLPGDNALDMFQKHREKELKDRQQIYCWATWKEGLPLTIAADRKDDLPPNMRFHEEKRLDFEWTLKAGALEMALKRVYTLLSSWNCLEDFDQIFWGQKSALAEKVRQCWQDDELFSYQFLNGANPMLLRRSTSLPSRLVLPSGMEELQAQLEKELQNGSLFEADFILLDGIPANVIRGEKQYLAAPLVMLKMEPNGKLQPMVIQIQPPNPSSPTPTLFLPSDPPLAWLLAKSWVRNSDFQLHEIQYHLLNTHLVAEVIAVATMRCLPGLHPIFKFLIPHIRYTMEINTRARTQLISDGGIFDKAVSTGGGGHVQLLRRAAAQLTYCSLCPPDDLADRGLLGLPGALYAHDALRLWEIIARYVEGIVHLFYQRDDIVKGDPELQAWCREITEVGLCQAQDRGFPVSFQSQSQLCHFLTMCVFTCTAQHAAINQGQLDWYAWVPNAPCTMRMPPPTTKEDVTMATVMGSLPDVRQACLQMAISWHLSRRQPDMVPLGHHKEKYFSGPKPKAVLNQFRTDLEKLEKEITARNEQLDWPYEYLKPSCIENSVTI

Hit rate of the full screen: of about 580,000 compounds, about 6,100 (1.1%) were called active. Another 15% or so got no clear call; they are omitted. Calls follow the shape of the dose curve; as a rule, active = well fitted inhibition curve with a large enough effect; inconclusive = small, poorly fitted or top-dose-only effect, or another doubt; inactive = no such curve, though single readings can be large or run the other way. This is a selection; strong and weak results do not stand in their true shares. Entries without a call were filed so in the source.
Each molecule was assayed against Polyunsaturated fatty acid lipoxygenase ALOX12 (Homo sapiens) (UniProt P18054) (assay: Primary qHTS assay for inhibitors of human arachidonate 12S-lipoxygenase (ALOX12): Round 2). Conditions: purified 12hLO, xylenol orange hydroperoxide absorbance; activity change, negative = inhibition: at 0.00344 µM unless noted.
How it was run: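 Purified human 12hLO at 150 nM in 25 mM Hepes, 0.01% Triton X-100, pH 7.0, preincubated 15 min at room temperature with compound. Reaction started with 40 uM arachidonic acid, 30 min at room temperature. Hydroperoxide measured by Fe-xylenol orange, 573/405 nm absorbance ratio.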
Molecule `Nc1ccc(N)cc1` has an activity change, negative = inhibition of -27.5%. With `Clc1ccc(C(OCCN2CCCCC2)c2ccccc2)cc1` (stereo not drawn) the activity change, negative = inhibition was -1.46%. `Nc1ccccc1` gave an activity change, negative = inhibition of 15.8%. With `CC[N+]1(CCOC(=O)C(O)(c2ccccc2)c2ccccc2)CCCCC1` the activity change, negative = inhibition was -13.5%. `C[N+]1(C)[C@@H]2CC[C@H]1CC(OC(=O)C(CO)c1ccccc1)C2` (stereo partly drawn) showed an activity change, negative = inhibition of -20.7%. With `O=C(O)COc1ccccc1` the activity change, negative = inhibition was -3.36%. With `Clc1ccc(CCC(Cn2ccnc2)Sc2c(Cl)cccc2Cl)cc1` (stereo not drawn) the activity change, negative = inhibition was 44.8%. With `CCC(=O)C(CCN(C)C)(c1ccccc1)c1ccccc1` the activity change, negative = inhibition was -2.21%. Work on `C[N+](C)(C)CCOC(=O)C(O)(c1ccccc1)c1ccccc1` yielded an activity change, negative = inhibition of 0.866%. For `Oc1ccc(Cl)cc1`, the activity change, negative = inhibition was 1.03%. For `CC(C)NC(C)C`, the activity change, negative = inhibition was 19.3%. `O=c1[nH]c2ccccc2n1C1CCNCC1` gave an activity change, negative = inhibition of 20.6%. In the case of `O=C(O)c1ccc2[nH]cc(CCCCN3CC=C(c4ccccc4)CC3)c2c1`, the activity change, negative = inhibition is reported as 29.7%. For `O=c1oc2ccccc2c(O)c1Cc1c(O)c2ccccc2oc1=O`, the activity change, negative = inhibition was 7.55%. In the case of `O=C(O)CC[n+]1ccc(-c2cc[n+](CCC(=O)O)cc2)cc1`, the Potency is reported as active: 14.1 µM. `C[C@]12CC[C@@H]3c4ccc(OC(=O)N(CCCl)CCCl)cc4CC[C@H]3[C@@H]1CC[C@@H]2O` was tested, and the activity change, negative = inhibition was -8.19%. In the case of `Clc1ccccc1CN1CCN(c2ccccc2)CC1`, the Potency is reported as active: 0.891 µM. `CC1N=C(N)OC1c1ccccc1` (stereo not drawn) was tested, and the activity change, negative = inhibition was -1.87% [at 0.00599 µM]. Work on `Cc1nc2ccccc2c(=O)n1-c1ccccc1Cl` yielded an activity change, negative = inhibition of 15.5% [at 0.00599 µM]. `COP(=S)(OC)Oc1ccc(S(N)(=O)=O)cc1` was tested, and the activity change, negative = inhibition was -24%. Molecule `C#CC(O)(C=CCl)CC` (stereo not drawn) has an activity change, negative = inhibition of 5.03%. In the case of `CC1NCCOC1c1ccccc1` (stereo not drawn), the activity change, negative = inhibition is reported as -13.2%. `CCC(C)(C)c1ccc(O)cc1` showed an activity change, negative = inhibition of -15%. Work on `NCCc1ccc(O)cc1` yielded an activity change, negative = inhibition of -11%. `CCc1cc(OC)c(C[C@H](C)N)cc1OC` gave an activity change, negative = inhibition of 17.6% [at 0.00599 µM]. `CNC(C)Cc1ccc2c(c1)OCO2` (stereo not drawn) was tested, and the activity change, negative = inhibition was -1.25% [at 0.0105 µM]. For `CNCC(=O)c1ccc(O)c(O)c1`, the activity change, negative = inhibition was 0.461%. `CC(C)(C)NCC(O)c1cc(Cl)c(N)c(Cl)c1` (stereo not drawn) was tested, and the activity change, negative = inhibition was -24.8%. `Fc1ccc(C(OCCN2CCN(CCCc3ccccc3)CC2)c2ccc(F)cc2)cc1` was tested, and the activity change, negative = inhibition was -16.9%. With `O=C(N/N=C/c1ccc([N+](=O)[O-])o1)c1cc([N+](=O)[O-])cc([N+](=O)[O-])c1O` the activity change, negative = inhibition was -25.7%. With `C[C@H](CN1CCOCC1)C(C(=O)N1CCCC1)(c1ccccc1)c1ccccc1` the activity change, negative = inhibition was -21.2% [at 0.0105 µM]. Work on `CCC1(CC)C(=O)C=CNC1=O` yielded an activity change, negative = inhibition of -10.7%. With `CC1(C)C(C=C(Cl)Cl)C1C(=O)OC(C#N)c1cccc(Oc2ccccc2)c1` (stereo not drawn) the activity change, negative = inhibition was -19.9%. `Oc1cc(Cl)ccc1Oc1ccc(Cl)cc1Cl` gave an activity change, negative = inhibition of -1.53%. In the case of `COc1cc(CC#N)cc(OC)c1OC`, the activity change, negative = inhibition is reported as -3.53%. For `CC(C)=CCN1CC[C@@]2(C)c3cc(O)ccc3C[C@@H]1[C@@H]2C`, the activity change, negative = inhibition was 32.1% [at 0.00599 µM]. Molecule `COc1ccc2c3c1O[C@H]1[C@H](O)CC[C@H]4[C@@H](C2)N(C)CC[C@@]341` has an activity change, negative = inhibition of -13.9% [at 0.00599 µM]. Molecule `COP(=S)(OC)SCN1C(=O)c2ccccc2C1=O` has an activity change, negative = inhibition of -41.7%.

Source: PubChem BioAssay AID1671190 (National Center for Advancing Translational Sciences (NCATS), 2021)
% is scaled to controls: 0 for no effect and ±100 for the full control effect; potency is read from the fitted curve at half-maximal effect.
